The source of these data is publication PMC11821526.

Sequences of proteins named here, by UniProt entry; tags and fusion partners are left off. A change or cut given only in a name is not applied to a line headed by its entry.
UniProt Q5XUX0: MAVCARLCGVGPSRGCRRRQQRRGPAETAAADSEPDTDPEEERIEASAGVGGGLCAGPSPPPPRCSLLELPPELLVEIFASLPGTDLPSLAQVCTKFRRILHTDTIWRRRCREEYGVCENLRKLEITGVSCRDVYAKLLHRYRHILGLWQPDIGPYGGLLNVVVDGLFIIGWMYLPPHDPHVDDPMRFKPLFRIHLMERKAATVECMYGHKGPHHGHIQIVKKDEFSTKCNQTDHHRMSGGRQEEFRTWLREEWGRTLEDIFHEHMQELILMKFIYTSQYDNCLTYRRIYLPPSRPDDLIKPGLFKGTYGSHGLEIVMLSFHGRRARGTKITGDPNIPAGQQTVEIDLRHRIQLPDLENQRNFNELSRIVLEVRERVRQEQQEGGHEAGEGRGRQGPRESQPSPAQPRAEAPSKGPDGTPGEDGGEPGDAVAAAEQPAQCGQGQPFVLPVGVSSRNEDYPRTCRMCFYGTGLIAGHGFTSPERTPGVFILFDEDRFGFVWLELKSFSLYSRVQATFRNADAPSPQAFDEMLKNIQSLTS
UniProt Q96NC0: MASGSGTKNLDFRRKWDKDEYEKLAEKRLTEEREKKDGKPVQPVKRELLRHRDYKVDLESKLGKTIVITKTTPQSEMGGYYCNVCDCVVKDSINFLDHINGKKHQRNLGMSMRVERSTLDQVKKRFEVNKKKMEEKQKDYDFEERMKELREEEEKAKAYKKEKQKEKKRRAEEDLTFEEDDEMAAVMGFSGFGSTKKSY
UniProt P15104: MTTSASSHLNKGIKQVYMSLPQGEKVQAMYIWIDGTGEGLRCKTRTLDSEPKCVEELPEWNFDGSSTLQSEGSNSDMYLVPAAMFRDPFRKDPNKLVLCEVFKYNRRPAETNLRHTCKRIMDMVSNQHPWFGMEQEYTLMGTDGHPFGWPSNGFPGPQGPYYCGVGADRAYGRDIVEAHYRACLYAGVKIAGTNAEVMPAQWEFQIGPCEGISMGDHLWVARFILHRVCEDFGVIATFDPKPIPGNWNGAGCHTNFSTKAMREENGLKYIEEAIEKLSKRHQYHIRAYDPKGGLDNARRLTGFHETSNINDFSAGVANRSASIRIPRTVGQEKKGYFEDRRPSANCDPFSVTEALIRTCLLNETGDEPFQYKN

Where two headings read alike, the source gives them in different places. No constants are given. Whether binding was seen depends on the method and setting. In cells and extracts the contact can be indirect. These calls come from enrichment with a bait or labelling near it, and not all partners need be listed. For some of these results: A no says only that the protein was not detected with the bait.

Holding throughout (experiment): affinity purification with mass spectrometry; HA–FBXO31(ΔF-box) or its D334N mutant stably expressed in FBXO31-knockout HEK293T cells; basal or 200 µM H2O2, with 500 nM epoxomicin; anti-HA magnetic beads, 300 mM NaCl, 50 mM Tris-HCl, 0.5% Igepal CA-630, 4 °C, 4 h; control: cells without bait cDNA
The target of test [1] is HA–FBXO31(D334N,ΔF-box) (human) (UniProt Q5XUX0).
In test [2] the target is HA–FBXO31(ΔF-box) (human) (UniProt Q5XUX0).
The target is the same in test [3]. The source holds these as a separate data set.
The target in test [4] is HA–FBXO31(D334N,ΔF-box) (human) (UniProt Q5XUX0). The source holds these as a separate data set.

Turning to ZMAT2 (from UniProt Q96NC0 1-199), the binding result in test [1] was “binds”. With “GLUL (glutamine synthetase) (from UniProt P15104 1-373)”, the binding result in test [2] was “binds”.

B1: SUGT1 (protein, UniProt Q9Y2Z0 1-365)
chain: MAAAAAGTATSQRFFQSFSDALIDEDPQAALEELTKALEQKPDDAQYYCQRAYCHILLGNYCVAVADAKKSLELNPNNSTAMLRKGICEYHEKNYAAALETFTEGQKLDIETGFHRVGQAGLQLLTSSDPPALDSQSAGITGADANFSVWIKRCQEAQNGSESEVWTHQSKIKYDWYQTESQVVITLMIKNVQKNDVNVEFSEKELSALVKLPSGEDYNLKLELLHPIIPEQSTFKVLSTKIEIKLKKPEAVRWEKLEGQGDVPTPKQFVADVKNLYPSSSPYTRNWDKLVGEIKEEEKNEKLEGDAALNRLFQQIYSDGSDEVKRAMNKSFMESGGTVLSTNWSDVGKRKVEINPPDDMEWKKY
For B1, the binding result is “no binding” in test [3] and “binds” in test [4].
